Measurements: publication PMC9785994
Results are given in words; binding and its absence hold for the method and conditions named. In cells and extracts the contact can be indirect. Some entries that bind do so weakly or less than the wild type. Blank lines part the entries; values can stand above or below the substance they belong to.

By UniProt entry, the sequences of proteins in these tests, tags left out.
UniProt P35222: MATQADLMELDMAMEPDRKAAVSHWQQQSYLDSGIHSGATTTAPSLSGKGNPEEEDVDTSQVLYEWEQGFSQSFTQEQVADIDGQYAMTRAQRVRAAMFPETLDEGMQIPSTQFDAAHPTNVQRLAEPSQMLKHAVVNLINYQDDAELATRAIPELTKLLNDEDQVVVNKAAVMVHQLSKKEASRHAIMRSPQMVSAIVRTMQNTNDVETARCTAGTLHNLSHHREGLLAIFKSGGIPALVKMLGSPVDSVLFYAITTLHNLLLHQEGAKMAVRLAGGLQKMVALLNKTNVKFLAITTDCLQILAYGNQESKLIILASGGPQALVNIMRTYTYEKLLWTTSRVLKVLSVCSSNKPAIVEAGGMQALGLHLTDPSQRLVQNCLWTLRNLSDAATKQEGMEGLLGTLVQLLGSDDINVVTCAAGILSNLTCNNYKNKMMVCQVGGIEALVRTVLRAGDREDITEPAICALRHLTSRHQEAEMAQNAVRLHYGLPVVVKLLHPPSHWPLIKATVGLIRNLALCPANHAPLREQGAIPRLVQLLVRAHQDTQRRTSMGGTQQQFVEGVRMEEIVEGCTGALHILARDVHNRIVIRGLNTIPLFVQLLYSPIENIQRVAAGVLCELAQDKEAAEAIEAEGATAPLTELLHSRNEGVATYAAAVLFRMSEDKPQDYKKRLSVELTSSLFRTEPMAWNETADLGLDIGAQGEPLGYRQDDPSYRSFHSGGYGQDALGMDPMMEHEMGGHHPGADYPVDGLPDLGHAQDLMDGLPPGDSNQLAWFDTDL
UniProt P23443: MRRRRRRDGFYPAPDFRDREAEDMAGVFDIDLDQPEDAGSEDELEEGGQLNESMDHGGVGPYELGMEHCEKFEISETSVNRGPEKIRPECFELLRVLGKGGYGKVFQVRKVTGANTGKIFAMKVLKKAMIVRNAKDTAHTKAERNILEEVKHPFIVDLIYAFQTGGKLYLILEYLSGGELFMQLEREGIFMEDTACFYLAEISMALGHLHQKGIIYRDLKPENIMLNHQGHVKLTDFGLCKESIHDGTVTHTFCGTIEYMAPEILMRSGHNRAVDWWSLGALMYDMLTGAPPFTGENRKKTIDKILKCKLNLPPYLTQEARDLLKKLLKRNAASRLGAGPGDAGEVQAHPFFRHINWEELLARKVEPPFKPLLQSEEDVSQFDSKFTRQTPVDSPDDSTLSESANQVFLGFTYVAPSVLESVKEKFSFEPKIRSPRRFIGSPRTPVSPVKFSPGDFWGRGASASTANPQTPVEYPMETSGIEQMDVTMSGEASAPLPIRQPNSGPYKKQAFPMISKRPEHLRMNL

What was measured:
Flag-β-catenin (human) = Flag-β-catenin (human) (UniProt P35222); assay: co-IP; 293T cells transiently transfected with Flag-β-catenin and Myc-S6K1; immunoprecipitation with Flag antibody, immunoblot with anti-Flag and anti-Myc
[1] = target: recombinant GST-β-catenin (human) (UniProt P35222); assay: pull-down; in vitro GST pulldown: recombinant GST or recombinant GST-β-catenin with 293T cell extracts; eluted S6K1 detected with anti-S6K1; only the target purified
[2] = target: β-catenin, endogenous in DLD-1 cells (human (endogenous in DLD-1)) (UniProt P35222); assay: co-IP; endogenous proteins in DLD-1 cells; immunoprecipitation with S6K1 (a) or β-catenin (b) antibodies, partner detected by immunoblot
[3] = target: Ribosomal protein S6 kinase 1 (S6K1), endogenous in 293T cells (human (endogenous in HEK293T)) (UniProt P23443); assay: co-IP; cytoplasmic and nuclear extracts from 293T cells treated or untreated with LiCl (25 mM, 8 h); immunoprecipitation with S6K1 antibody
[4] = target: Flag-tagged wild-type S6K1 (S6K1-WT) (human) (UniProt P23443); assay: co-IP; 293T cells expressing Flag-tagged WT, CA and DN forms of S6K1, treated with LiCl (25 mM) for 8 h; immunoprecipitation with Flag antibody
[5] = target: Ribosomal protein S6 kinase 1 (S6K1), endogenous in DLD-1 cells (human (endogenous in DLD-1)) (UniProt P23443); assay: co-IP; endogenous proteins in DLD-1 cells; immunoprecipitation with S6K1 (a) or β-catenin (b) antibodies, partner detected by immunoblot

Substance: Myc-S6K1 (from UniProt P23443 1-525)
binding (Flag-β-catenin (human)): binds

Substance: Ribosomal protein S6 kinase 1 (S6K1), endogenous in 293T cells (from UniProt P23443 1-525)
binding [1]: binds

The remaining lines, values ahead:

binding [2]: binds
Substance: Ribosomal protein S6 kinase 1 (S6K1), endogenous in DLD-1 cells (from UniProt P23443 1-525)

binding [3]: binds | binding [4]: binds
Substance: β-catenin, endogenous in 293T cells (from UniProt P35222 1-781)

binding [5]: binds
Substance: β-catenin, endogenous in DLD-1 cells (from UniProt P35222 1-781)
